# About 5,500 (1.4%) of roughly 400,000 compounds were called active. The shares of active, inactive and inconclusive entries below differ from those in the screen. The call rests on the fitted dose curve; in most records, active means well fitted cell-killing curve with a large enough effect; inconclusive means small, poorly fitted or top-dose-only effect, or effect the other way; inactive means flat fitted curve, though single readings scatter. Where the call is inconclusive, the potency comes from a doubtful curve fit.
# Experiment: qHTS assay for MDR1-selective chemotherapeutics: Primary screen using the parental adenocarcinoma cell KB-3-1; further: nearly all actives have a fitted effect of over 60% in size
# Details: KB-3-1 viability, CellTiter-Glo ATP luminescence, 72 h; activity change, negative = cytotoxic: at 46.1 µM (top of the series)
# How it was run: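 Viability of parental KB-3-1 cells, measured by CellTiter-Glo luminescence, followed a 72 h incubation at 37 °C with pinned compounds in phenol-red-free DMEM containing 10% FBS.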
# On the % scale 0 is the no-effect control and ±100 the full control effect; potency means the concentration at half of the fitted maximal effect.
SMILES,Potency,"activity change, negative = cytotoxic"
CN1CCN(CC(=O)Nc2nnc(-c3cccs3)s2)CC1,inactive,
COc1ccc(C(=O)NCCc2csc(-c3ccc(Cl)cc3)n2)cc1,"inconclusive: 29.1 µM [cytotoxic, single point]",
CC(=O)CC1c2cc(F)ccc2C=C(c2ccsc2)N1c1ccc(C#Cc2cncn2C)cc1 (stereo not drawn),"inconclusive: 20.6 µM [cytotoxic, single point]",
COC(=O)C1CCN(C(=O)COC(=O)/C=C/c2ccc(O)c(OC)c2)CC1,"inconclusive: 4.11 µM [rising, full curve]",
Nc1ccc(N2CCN(c3ccc(Cl)c(Cl)c3)CC2)cc1,active: 20.6 µM,
Cn1c(SCc2ccc(Br)cc2)nc2c(c1=O)SCC2,active: 20.6 µM,
Cc1ccc(N(CC(=O)Nc2ccc(F)cc2F)S(=O)(=O)c2cccs2)cc1,"inconclusive: 0.259 µM [cytotoxic, full curve, poor fit]",
CCOc1ccc(NC(=S)NC23CC4CC(CC(C4)C2)C3)cc1,inactive,
Cc1cccc2cc(CN(Cc3ccco3)C(c3nnnn3CCc3ccccc3)C(C)C)c(=O)[nH]c12 (stereo not drawn),"inconclusive: 29.1 µM [cytotoxic, single point]",
O=C(CN1CCN(Cc2ccccc2)CC1)Nc1ccc(-n2cnnn2)cc1,"inconclusive: 9.2 µM [rising, partial curve, poor fit]",
CCC(C)C(=O)N1c2ccccc2C(=C2SC(C(=O)OC)=C(C(=O)OC)S2)C(=S)C1(C)C (stereo not drawn),"inconclusive: 35.5 µM [cytotoxic, single point]",
COc1cc(NC(=O)Nc2cccc([N+](=O)[O-])c2)cc(OC)c1,inactive,
O=C(c1cc(=O)[nH]c2ccccc12)N1CCN(c2cccc(C(F)(F)F)c2)CC1,inactive,
CC(=O)Nc1ccccc1C(=O)C(=O)Nc1ccc(C)c(F)c1,"inconclusive: 0.0092 µM [cytotoxic, full curve]",
CC(=O)c1ccc(Oc2ccc(C(=O)c3ccc(C)c(C)c3)cc2[N+](=O)[O-])cc1,"inconclusive: 20.6 µM [cytotoxic, single point]",
N#CCSc1n[nH]c2nc3c(c(=O)n12)C1(CCCCC1)Cc1ccccc1-3,inactive,
C=C1C(=O)OC2C1CCC(C)=CCCC1(C)OC21 (stereo not drawn),"inconclusive: 16.4 µM [cytotoxic, single point]",
Fc1cc(F)c2nc(Nc3nc4cc5c(cc4s3)OCO5)sc2c1,inactive,
O=C(CCN1C(=O)/C(=C/c2cccs2)SC1=S)Nc1ccccc1O,inactive,
Cc1cc(-c2ccc(S(=O)(=O)Nc3cc(Cl)ccc3C)s2)on1,"inconclusive: 29.1 µM [cytotoxic, single point]",
C(#Cc1ccccc1)C[N+]1(CC#Cc2cccc3ccccc23)CCOCC1,"inconclusive: 29.1 µM [cytotoxic, single point]",
Cc1oc2ncn(C)c(=O)c2c1C(=O)N(Cc1ccccc1)C(C)C,,inconclusive: -47.8%

# Nine neighbouring compounds out of the list so far:
SMILES,Potency,"activity change, negative = cytotoxic"
Cn1c(SCc2ccc(Br)cc2)nc2c(c1=O)SCC2,active: 20.6 µM,
Cc1ccc(N(CC(=O)Nc2ccc(F)cc2F)S(=O)(=O)c2cccs2)cc1,"inconclusive: 0.259 µM [cytotoxic, full curve, poor fit]",
CCOc1ccc(NC(=S)NC23CC4CC(CC(C4)C2)C3)cc1,inactive,
Cc1cccc2cc(CN(Cc3ccco3)C(c3nnnn3CCc3ccccc3)C(C)C)c(=O)[nH]c12 (stereo not drawn),"inconclusive: 29.1 µM [cytotoxic, single point]",
O=C(CN1CCN(Cc2ccccc2)CC1)Nc1ccc(-n2cnnn2)cc1,"inconclusive: 9.2 µM [rising, partial curve, poor fit]",
CCC(C)C(=O)N1c2ccccc2C(=C2SC(C(=O)OC)=C(C(=O)OC)S2)C(=S)C1(C)C (stereo not drawn),"inconclusive: 35.5 µM [cytotoxic, single point]",
COc1cc(NC(=O)Nc2cccc([N+](=O)[O-])c2)cc(OC)c1,inactive,
O=C(c1cc(=O)[nH]c2ccccc12)N1CCN(c2cccc(C(F)(F)F)c2)CC1,inactive,
CC(=O)Nc1ccccc1C(=O)C(=O)Nc1ccc(C)c(F)c1,"inconclusive: 0.0092 µM [cytotoxic, full curve]",

# (continued)

SMILES,Potency,"activity change, negative = cytotoxic"
CCCCn1c(N)c(N(CCOC)C(=O)c2ccc(COc3ccccc3)o2)c(=O)[nH]c1=O,"inconclusive: 29.1 µM [rising, single point]",
Cc1ccc(Cl)cc1N1CCN(C(=O)c2ccc(CS(=O)(=O)c3ccc(Br)cc3)o2)CC1,"inconclusive: 29.1 µM [cytotoxic, single point]",
O=C(N/N=C\c1ccccn1)c1ccccc1O,inactive,
CCOc1cccc(/C=N/NC(=O)c2ccc3c(c2)OCCO3)c1O,"inconclusive: 29.1 µM [cytotoxic, single point]",
O=C(Oc1c(Cl)cc(Cl)c2cccnc12)c1cccc([N+](=O)[O-])c1,active: 14.6 µM,
Cc1cccc(N(C)c2cc(C)nc3nc(C)nn23)c1,"inconclusive: 29.1 µM [cytotoxic, single point]",
Cc1c(C)n(Cc2ccccc2)c2ncnc(N)c12,"inconclusive: 18.4 µM [cytotoxic, partial curve, poor fit]",
COC(=O)C1=C/C=C\CN(C(c2ccccc2)c2ccccc2)/C=C\1C(=O)OC,"inconclusive: 29.1 µM [cytotoxic, single point]",
CCn1c2ccccc2c2cc(/C(C)=N/O)ccc21,"inconclusive: 29.1 µM [cytotoxic, single point]",
Cc1cccc(C(=O)NCC(=O)NC2CCC(C)CC2)c1 (stereo not drawn),,inconclusive: 9.65%
CN1CCN(c2ccc(NC(=O)COc3ccccc3[N+](=O)[O-])cc2)CC1,inactive,
CCc1cc2c3c(c1)C1(C(=O)N3C(C)(C)CC2C)C(C#N)=C(N)N2C(=C1C#N)Nc1ccccc12 (stereo not drawn),"inconclusive: 29.1 µM [cytotoxic, single point]",
CCOC(=O)C1=C(c2ccccc2)NC(SCC(=O)NC2CCCCC2)=C(C#N)C1c1ccco1 (stereo not drawn),inactive,
CN(C)C=Nc1ccc2nc3c(cc2c1)[nH]c1ccccc13,inactive,
CC(C)c1ccc(-c2cc(C(=O)N3CCOCC3)c3cc(Br)ccc3n2)cc1,"inconclusive: 7.31 µM [cytotoxic, partial curve]",
CCOc1ccc(CCN2C(=O)C(=O)N([C@@H](CC(C)C)CN3CCC[C@H]3CN3C(=O)C(=O)NC[C@@H]3CC(C)C)C[C@@H]2Cc2ccccc2)cc1,"inconclusive: 29.1 µM [cytotoxic, single point]",
CC(C)(C)c1nc(NCCN2CCOCC2)c2nnn(Cc3ccccc3Cl)c2n1,"inconclusive: 25.1 µM [cytotoxic, single point]",
COc1cc(CC(=O)OCC(=O)N2C(C)CCCC2C)cc(OC)c1OC (stereo not drawn),inactive,
CCOC(=O)C1=C(C)N(c2ccc(C)cc2)C(=O)/C1=C\c1ccc(O)c(OC)c1,"inconclusive: 18.4 µM [cytotoxic, partial curve, poor fit]",
Cc1ccc(NC(=O)C2CCN(S(=O)(=O)c3ccc4c(c3)NC(=O)C(C)S4)CC2)c(C)c1 (stereo not drawn),"inconclusive: 20.6 µM [cytotoxic, single point]",
CC(=O)c1ccc(NC(=O)CCCN2C(=O)/C(=C/C(C)=C/c3ccccc3)SC2=S)cc1,"inconclusive: 20.6 µM [cytotoxic, single point]",

# From PubChem BioAssay AID1347075 (National Center for Advancing Translational Sciences (NCATS), 2019)
